In the experiment the target is T1, CC2 (WT) (murine, N-terminal acetyl group; C-terminal amide).
T1 construct: Forms a trimer at 10 uM in gel filtration; also called CC2 peptide; CC2 wild type
T1 peptide: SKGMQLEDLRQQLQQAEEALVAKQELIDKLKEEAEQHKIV
The experiment is described as follows: gel filtration (Superdex 75) at 10 µM, self-association. On the technique in general: In gel filtration, larger molecules generally elute earlier.

No constants are given. Whether binding was seen depends on the method and setting. Some results given as binding are weak or reduced against the parent protein; the word gives no strength.

As to SKGMQLEDLRQQLQQAEEALVAKQELIDKLKEEAEQHKIV (N-terminal acetyl group; C-terminal amide) [CC2 (WT)], the binding result was “binds”.

Values taken from patent publication US20080207517A1 (INSTITUT PASTEUR, published 2008).
